In this data set the test system is MRSA BAA-1707. The data set can be described thus: MIC assay with metal(II) cation co-treatment. In kind it is cell-based, Staphylococcus aureus.

The text below walks through data of paper PMC5435703 (Scientific Reports, 2017).

Structures are written as SMILES.

For `C[C@H]1c2cccc(O)c2C(=O)C2=C(O)[C@]3(O)C(=O)C(C(N)=O)=C(O)[C@@H](N(C)C)[C@@H]3[C@@H](O)[C@@H]21` [Doxy., Doxycycline, reference compound], the “fold elevated MIC with iron(II) co-treatment” value (MRSA BAA-1707, 200 µM iron(II)) is 4 fold. Moreover, where the note is “MRSA BAA-1707, 200 µM zinc(II)”, the “fold reduction in MIC with zinc(II) co-treatment” value is 2 fold.
